Data as given in US20240317865A1, “ANTIBODIES AGAINST INTEGRIN ALPHA 11 BETA 1” (MOMENTA PHARMACEUTICALS, INC., priority 2020, published 2024).
At least one read-out could not be matched to a standard name with certainty. Some compounds share one wording; it may come from a single statement.

T1: CHO-K1 cells expressing human α11 (Homo sapiens, UniProt Q9UKX5)
T1 construct: expressed in transfected cells; host or cells: CHO-K1
T1 sequence (Q9UKX5 23-1188): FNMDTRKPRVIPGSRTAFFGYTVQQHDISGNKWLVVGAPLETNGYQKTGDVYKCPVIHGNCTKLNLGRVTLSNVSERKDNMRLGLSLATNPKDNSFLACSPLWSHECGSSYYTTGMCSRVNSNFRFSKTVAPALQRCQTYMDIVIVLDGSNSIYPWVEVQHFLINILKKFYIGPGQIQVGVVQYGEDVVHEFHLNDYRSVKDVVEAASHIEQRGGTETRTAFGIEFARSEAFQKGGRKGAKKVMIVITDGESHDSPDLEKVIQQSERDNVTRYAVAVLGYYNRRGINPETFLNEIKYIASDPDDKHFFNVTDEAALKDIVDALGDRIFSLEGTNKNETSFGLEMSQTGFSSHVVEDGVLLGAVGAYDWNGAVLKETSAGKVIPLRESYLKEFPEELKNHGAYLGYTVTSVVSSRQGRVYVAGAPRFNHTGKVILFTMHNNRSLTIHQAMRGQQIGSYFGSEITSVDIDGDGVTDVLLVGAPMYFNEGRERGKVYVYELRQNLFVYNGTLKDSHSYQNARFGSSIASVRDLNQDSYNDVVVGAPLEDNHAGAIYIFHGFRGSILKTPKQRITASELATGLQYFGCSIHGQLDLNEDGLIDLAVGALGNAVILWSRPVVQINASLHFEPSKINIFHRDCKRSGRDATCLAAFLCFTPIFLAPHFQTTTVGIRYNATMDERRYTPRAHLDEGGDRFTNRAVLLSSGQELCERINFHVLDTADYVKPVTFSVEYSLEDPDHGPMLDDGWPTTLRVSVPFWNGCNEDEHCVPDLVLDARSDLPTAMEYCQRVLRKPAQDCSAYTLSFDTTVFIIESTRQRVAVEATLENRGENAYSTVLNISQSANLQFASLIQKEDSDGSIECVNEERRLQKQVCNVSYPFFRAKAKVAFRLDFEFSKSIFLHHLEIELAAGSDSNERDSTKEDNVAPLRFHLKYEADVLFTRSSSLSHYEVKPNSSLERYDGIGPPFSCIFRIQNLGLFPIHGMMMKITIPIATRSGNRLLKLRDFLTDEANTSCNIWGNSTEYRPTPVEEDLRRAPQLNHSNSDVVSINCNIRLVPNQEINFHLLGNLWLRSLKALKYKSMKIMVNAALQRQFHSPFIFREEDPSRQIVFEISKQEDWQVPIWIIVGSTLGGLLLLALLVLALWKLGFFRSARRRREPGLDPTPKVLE


Target: T1, CHO-K1 cells expressing human α11
Assay: FACS antibody binding to CHO-K1 cells expressing human α11
Assay type: cell-based
Settings: in words

Molecule	CHO-K1 binding EC50
8-P20: mouse anti-α11β1 mAb; VH SEQ ID NO: 105, VL SEQ ID NO: 106 (antibody, V domains shown) VH: KVMLVESGGALVKPGGSLKLSCVASGFTFSNYAMSWVRQTPEKRLEWVATISSGGYYTYYPDSVKGRFTISRDNARNTLFLQMSSLRSEDTAMFYCAREDDYGRYSYTMDYWGQGTSVTVSS VL: DVVMTQTPLSLPVSLGDQVSISCRCSQSLVHSNGNTYLHWYLQKPGQSPQLLIYKISNRFSGVPDRFSGSGSGTDFTLKISRVEAEDLGVYFCSQSTHVPYTFGGGTELEIK	low nanomolar range
8-J17: mouse anti-α11β1 mAb; VH SEQ ID NO: 113, VL SEQ ID NO: 114 (antibody, V domains shown) VH: QVQLQQSGAELAKPGASVKMSCKASGYTFTNYWMHWVKQRPGQGLEWIGYINPNNGYTEYNQRFKDKATLTADRSSTTAYMQLSSLTSEDSAVYYCARSDIITTDYWGQGTTLTVSS VL: DVVMTQTPLSLPVSLGDQASISCRSSQSLVYSNGNTYLHWYLQKPGQSPKLLIYKVSNRFSGVPDRFSGSGSGTDFTLKISRVEAEDLGVYFCSQSTHVPWTFGGGTKLEIK	low nanomolar range
8-I14: mouse anti-α11β1 mAb; VH SEQ ID NO: 109, VL SEQ ID NO: 110 (antibody, V domains shown) VH: EVQLQQSGPELVKPGASVKKSCKASGYTFTDYYMHWVKQKPGQGLEWIGKIYPGSGNTHYNEKFKGKATLTADKSSSTAYMQLSSLTSEDSAVYFCATNYYGYRAMNYWGQGSSVTVSS VL: DIHLTQSPSSLSASLGERISLTCRASQDIYISLNWFQQKPDGTIKLLIYGTSSLDSGVPKRFSGSRSGSDYSLTISSLESEDFADYYCLQYASSPYTFGGGTKLEIK	low nanomolar range
9-G05: mouse anti-α11β1 mAb; VH SEQ ID NO: 103, VL SEQ ID NO: 104 (antibody, V domains shown) VH: EVQLQQSGPELVKPGASVKIPCKASGYTFPDYNMDWVKQSHGKSLEWIGYINPDNGGTIYNQKFKGKATLTVDKSSSTAYMELRSLTSEDTAVYYCARLDSSGYGYYAMDYWGQGTSVTVSS VL: DIVLTQSPASLAVSLGQRATISCRASESVDNYGISFMHWYQQKPGQPPKLLIYRASNLDSEIPARFSGSGSRTDFTLTIDPVETDDVATYYCQQSYKDPRTFGGGTKLEIK	not as potent
9-E16: mouse anti-α11β1 mAb; VH SEQ ID NO: 111, VL SEQ ID NO: 112 (antibody, V domains shown) VH: EVQLQQSGPELVKPGASVKISCKASGYTFTDYYMHWVKQKPGQGLEWIGEIYPGSGNPYYNEKFKGKATLTADKSSSSAYMQLSSLTSEDSAVYFCARTSYGRVGTGFAYWGQGTLVTVSA VL: NFVMTQTPLSLPVSLGDQASISCRSSQSLLHSNGNTYLHWYLQKPGQSPKLLIYKVSNRFSGVPDRFSGSGSGTDFTLKINRVETEDLGIYFCSQSSHVPTFGAGTKLELK	not as potent
